Laboratory results taken from the supplement of paper PMC5949888.
± gives the standard deviation of the averaged measurements. Most values lie at the floor of the assay. Slopes are relative: functional sequences can read slightly below zero.

test system: Saccharomyces cerevisiae PS128 hsf1 delta, HSF1(1-493) fusion; assay: growth estimate (transactivation domain function in HSF1 fusion, heat-shock survival) (a.u. (slope of normalised read count over time)); higher = stronger growth at 37°C, i.e. more transactivation activity; details: library: random library
Experimental: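 Random 60-nt DNA library encoding peptides of up to 20 aa, fused to the C-terminus of yeast HSF1 residues 1-493 (C-terminal TAD deleted) and expressed from the native HSF1 promoter on a CEN plasmid in hsf1-deleted S. cerevisiae PS128. Cells were selected at 37°C on -trp 5-FOA plates for 0, 2, 4, 6 and 8 days and amplicons were sequenced. Growth estimate is the slope of a robust linear fit of total-sum-normalised read counts (normalised to the first time point) over time, using at least 2 replicates. Sequences are classed functional (TAD activity) above a threshold of -0.13, set from stop-codon control sequences.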

Substance	growth estimate
YSRADWI	< -0.25
RVLGHRPRTPRMVKF	-0.199
FTKAWGT	< -0.25
PLSWPGSVFGSGGLPVEGCR	< -0.25
LSGLEGVARSERIDRHRYAG	< -0.25
RFYGEYKLNRG	< -0.25
RNPHVP	< -0.25
CMSRQLQIYIILSQASRSVV	< -0.25
WITGPRMQLGGAAEIFVARV	< -0.25
GTTERLDISTRPCNGTNLTY	< -0.25
LADVRPTSSLSVRSLPASRH	< -0.25
LRVN	< -0.25
WNRNCLRRVLVRSIG	< -0.25
NHQ	< -0.25
CECWGTVIDQHWRRPRG	< -0.25
LLRI	< -0.25
RTIPDGAYLMSVSSQ	< -0.25
GKSRTDSRAIQRGVATISRG	< -0.25
VSPIETTLSE	< -0.25
RVPANRTRSMSIIVYPDHVA	< -0.25
SWWLIVRSE	-0.198
AGLTGNGSGQEGLEPVVTPC	< -0.25
GCNLGTMSSTSCRVLCINEP	< -0.25
VLYTV	< -0.25

Substance	growth estimate
RAVMVSPPVVRRKASGR	< -0.25
KLGTQR	< -0.25
YAVM	< -0.25
TTAKMSSKPAPRGLNYTSCP	-0.246
QQTHGGLL	< -0.25
GFGSHCDRQLIHLSSQQRGL	< -0.25
VHSRYLSEGYGHGHSQHMIA	< -0.25
RFRNIDSVGSRSHVRSGLFD	< -0.25
RVLASYRRLIGLGRIFVQFP	< -0.25
TTCSLHKSAEGHRA	< -0.25
KDSRCPGATAWMKTGRLKPP	< -0.25
HFWNLGWSTSACGFHRLRTV	< -0.25
DRNQVTGGLYLSAGTGAMII	< -0.25
PHGFFWLGGSIGP	< -0.25
YISGISVLQGLLSSVLMAIS	< -0.25
HFDYVVGYSPFSAVVTY	< -0.25
LLETSYEE	< -0.25
YSMQAKTFSCLFTYNG	< -0.25
DSITVTEDR	< -0.25
RFLFPIFVL	< -0.25
TSG	-0.246
HVRHGYRCEGAWLSWRQVAS	< -0.25
LPRCRGIGNSRSGHAPCNCP	< -0.25
KLAAQLSVVSALKATIMAMV	< -0.25

Substance	growth estimate
IGIASNGGKNSSPEACRWGG	< -0.25
CVLAKPTRAGRLNKN	< -0.25
ELMIFRDRLSGMWPPR	< -0.25
RKLYFYSVRTPAESTVGR	< -0.25
AHTRVDSVVGMPRF	< -0.25
RPLGTGIPTTYYHPGRY	< -0.25
IRR	-0.2453 ± 0.00071
SHPQRFTTGLRGKLEWRYLR	< -0.25
CVRRITKCVWA	< -0.25
QTPSQGGALDSRSPALSNQL	< -0.25
LINVQSLSLNSSRTKTGVGP	< -0.25
SAIGHFKVTSRMVNHGPQPG	< -0.25
AYRLRDRQCSGVNACGSADW	< -0.25
LHWFFDLADRAAQDVAAAMS	0.0927
FGLLGPVRSQVTTDAGHRSI	< -0.25
THYPGRQSFV	< -0.25
CERIKVRAQLYNCVTGATSI	< -0.25
SLDRTLMGGGVYMDSSIRGA	< -0.25
LLPSMGERKSVGLLTILDWP	< -0.25
LVNEVEPFGLGLMSHGYGGV	0.0823
LSSC	< -0.25
KWGHHANNNPRPDPDRAKCL	< -0.25
MRQAFVYCLTSAGNSALRAH	< -0.25
PRSYDSEVGKPVSNG	< -0.25

Substance	growth estimate
SGNGVRNRQRPVGEQMGAHV	< -0.25
KKLLRRDWMTQK	< -0.25
SQVWCAG	-0.245
TASCERRGKFRLAVFDFRRL	< -0.25
TRLQRSKHDLA	< -0.25
RRNLNICDLEVPFKTLPWRA	< -0.25
PPVAVHCVPGGLGRSRSGRS	< -0.25
RGSEESHGSARIAICAFTRR	< -0.25
VISSLTYLARRDLLKSAHNP	< -0.25
LSCVPAGAA	< -0.25
GRPSMNCLP	< -0.25
RIGRLSN	< -0.25
LTCNRFNLILARRIA	< -0.25
NNIV	< -0.25
IGVGWEGRVFF	< -0.25
PRGFTHAKKAKF	< -0.25
TDVPSVESRPRWKNQATSNN	< -0.25
DPVGESLRGTNT	< -0.25
CEVVRTLVHPVTWIDLSEQC	< -0.25
SRIHQSDC	< -0.25
SNVREPSFR	< -0.25
IDGRATVQVRSVALETTTRS	< -0.25
RFWLDNESASAILVPIKSRH	< -0.25
SNRVWLRG	< -0.25

No new results follow: entries from further up.
Substance	growth estimate
LLETSYEE	< -0.25
YSMQAKTFSCLFTYNG	< -0.25
DSITVTEDR	< -0.25
RFLFPIFVL	< -0.25
TSG	-0.246
HVRHGYRCEGAWLSWRQVAS	< -0.25
LPRCRGIGNSRSGHAPCNCP	< -0.25
KLAAQLSVVSALKATIMAMV	< -0.25
IGIASNGGKNSSPEACRWGG	< -0.25
CVLAKPTRAGRLNKN	< -0.25
ELMIFRDRLSGMWPPR	< -0.25
RKLYFYSVRTPAESTVGR	< -0.25
AHTRVDSVVGMPRF	< -0.25
RPLGTGIPTTYYHPGRY	< -0.25
IRR	-0.2453 ± 0.00071
SHPQRFTTGLRGKLEWRYLR	< -0.25
CVRRITKCVWA	< -0.25
QTPSQGGALDSRSPALSNQL	< -0.25
LINVQSLSLNSSRTKTGVGP	< -0.25
SAIGHFKVTSRMVNHGPQPG	< -0.25
AYRLRDRQCSGVNACGSADW	< -0.25
LHWFFDLADRAAQDVAAAMS	0.0927
FGLLGPVRSQVTTDAGHRSI	< -0.25
THYPGRQSFV	< -0.25
CERIKVRAQLYNCVTGATSI	< -0.25
SLDRTLMGGGVYMDSSIRGA	< -0.25
LLPSMGERKSVGLLTILDWP	< -0.25
LVNEVEPFGLGLMSHGYGGV	0.0823
LSSC	< -0.25
KWGHHANNNPRPDPDRAKCL	< -0.25
MRQAFVYCLTSAGNSALRAH	< -0.25
PRSYDSEVGKPVSNG	< -0.25
SGNGVRNRQRPVGEQMGAHV	< -0.25
KKLLRRDWMTQK	< -0.25
SQVWCAG	-0.245
TASCERRGKFRLAVFDFRRL	< -0.25
TRLQRSKHDLA	< -0.25
RRNLNICDLEVPFKTLPWRA	< -0.25
PPVAVHCVPGGLGRSRSGRS	< -0.25
RGSEESHGSARIAICAFTRR	< -0.25
VISSLTYLARRDLLKSAHNP	< -0.25
LSCVPAGAA	< -0.25
GRPSMNCLP	< -0.25
RIGRLSN	< -0.25
LTCNRFNLILARRIA	< -0.25
NNIV	< -0.25
IGVGWEGRVFF	< -0.25
PRGFTHAKKAKF	< -0.25
TDVPSVESRPRWKNQATSNN	< -0.25
DPVGESLRGTNT	< -0.25
CEVVRTLVHPVTWIDLSEQC	< -0.25
SRIHQSDC	< -0.25
SNVREPSFR	< -0.25
IDGRATVQVRSVALETTTRS	< -0.25
RFWLDNESASAILVPIKSRH	< -0.25
SNRVWLRG	< -0.25

The list goes on.

Substance	growth estimate
FFYASQAFHAGLASALVLCG	< -0.25
NILICCLNL	< -0.25
PNRPMQLEQR	< -0.25
STLKRSVGLLATG	< -0.25
RLRFQAAPPFYGMSGGVTLS	< -0.25
RSTSMHNIPNVFAQRCLSPP	< -0.25
FSV	< -0.25
SGWGSGYRL	< -0.25
IRLGFSMVTLGSPRGVSPQA	< -0.25
YRSGLCL	< -0.25
LVRRCNVKL	< -0.25
RRDGVRGLGLVVMASLG	< -0.25
LATPADATQKPCILVYVNEG	< -0.25
GRWRS	< -0.25
TVGRKMTRKPRERDRRLYYE	< -0.25
CFGCSHIGRTCDKGTVTLSC	< -0.25
LQLGQYLGQG	< -0.25
DRVAA	< -0.25
GSTNYQESTILRVTPWPSAS	< -0.25
HHRTLRRVSYRVTGISGTDE	< -0.25
SHRDRLCSILSSIVARASGM	< -0.25
WRGVLDDEDGYCAEYRCQGV	< -0.25
TLTCVGNRSQVPLELCTNTR	< -0.25
GDSGASVVFLVQLT	< -0.25

Substance	growth estimate
KKAIGFVVPMRQGRLASPDR	< -0.25
AARDDISLGGGVSNSRMVAT	< -0.25
FWLCKRLGGGCGPRLTHLGA	< -0.25
DGLDRVRAFGRLSMEGRDDV	< -0.25
RGRFAAA	< -0.25
IWSA	< -0.25
NNHIRHDGTGPWTNEQFTSA	< -0.25
QRHLCSLTCRPVVSFRTPSI	< -0.25
RREHHNHVCEPGEENSQGLH	-0.231
ESSPRQDACLITGNLSNLGT	< -0.25
GYLLYEWRSAGNDRKASWTT	< -0.25
LEQTKSMV	-0.245
FDSGVPEKLCIGDRARRKFG	< -0.25
LNGCINST	< -0.25
AIFAPRILSFGLWPQANHTK	< -0.25
LRALG	< -0.25
SCPGTVELYESRESYGASAL	< -0.25
LTVLEAKHVGGSSYFLDMTP	< -0.25
LDLIQFDEAVCLGTIEVNML	< -0.25
LPMVWNKGLM	< -0.25
GSTA	< -0.25
RPSANRAIETSRETGCRPDE	< -0.25
RTIHERASVILLHRVLQARV	< -0.25
FNGPCGKGGVRYGKSDRCID	< -0.25

Substance	growth estimate
PSSDRGGRNLSNI	< -0.25
SWVRKGVINR	< -0.25
IWHFA	< -0.25
EAVLWAFVEH	-0.224
ATDNFYNTGYSQARISLHIA	< -0.25
IRVGESIC	< -0.25
SLRGDKCDLQDIGRSKLASN	< -0.25
LFQGSIGRFR	< -0.25
QLCEGRSEPGRQAGYIM	< -0.25
TGPLTR	< -0.25
NLVSTHDDASAEHERLVQRP	< -0.25
FRVLEPSCRKNPLARYGRSL	< -0.25
KLF	< -0.25
ILGHESVPYVFILARHANLA	< -0.25
KGARKGRANSSKSRRRVGRI	< -0.25
ILMHWAAGS	< -0.25
HDLAWLRLNGIFERYVWDQC	-0.0335
MGLKRARWFTPLIRWPRYTP	< -0.25
LQGFKLM	< -0.25
SGNYCRMRLQGRADRTPGTQ	< -0.25
GHRSPIGGIYTVPGHMSEKA	< -0.25
TYLVVLVQV	< -0.25
ALEQVRQ	< -0.25
NLLVLRRLM	< -0.25

Substance	growth estimate
CRISSRVLSYARDC	< -0.25
TNKDV	< -0.25
LMLANRQPTERRGVKVRRTP	< -0.25
QQRMNTREGKPTHFNRKFRP	< -0.25
SRRRRCMGPAAV	< -0.25
SLGGVGAWSPWLRGPQTQGT	< -0.25
FGFT	< -0.25
VSGIRDRSRLK	< -0.25
KPVAS	< -0.25
PAEGESSRSNAFKMPPLLRH	< -0.25
NSDTSGVMQERSVNLQLQLG	< -0.25
LHLVIGGSEAVVALIGARNG	< -0.25
CELAVTLLGSVMVFCANH	< -0.25
LRSVTRSLGLRTVTPLGHDA	< -0.25
NGSSFSACTSVP	< -0.25
VFLQIRRIP	< -0.25
SLSCKSASLCGSPANAGASG	< -0.25
IGAGACEDCGTGSRFT	< -0.25
VSGLSNRAHQWRMWKYVLLG	< -0.25
VPQINEGCKSGREGVLIRAS	< -0.25
ADSCTEWEPRIVTFKT	< -0.25
